The list shows a part of the results.
Compound: Cc1cc(ccc1-c1ccccc1)C(=O)N1CCCN(CC1)C(=O)CCl [compound 10]
Assay: probe-labelled cysteine peptide fold change vs DMSO (competition) (log2 fold change); higher = less target engagement (more negative = stronger competition)
Conditions: THP-1, incubation time: 4 h
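Also: competitive profiling in live THP-1 cells: cysteine peptides tagged with an iodoacetamide desthiobiotin (IA-DTB) probe, intensity after compound treatment relative to DMSO-treated cells.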

By UniProt entry, the sequences of proteins in these tests, tags left out. Where a name states a change or a piece, a line headed by the entry shows the natural chain unless it says otherwise.
UniProt Q96T51: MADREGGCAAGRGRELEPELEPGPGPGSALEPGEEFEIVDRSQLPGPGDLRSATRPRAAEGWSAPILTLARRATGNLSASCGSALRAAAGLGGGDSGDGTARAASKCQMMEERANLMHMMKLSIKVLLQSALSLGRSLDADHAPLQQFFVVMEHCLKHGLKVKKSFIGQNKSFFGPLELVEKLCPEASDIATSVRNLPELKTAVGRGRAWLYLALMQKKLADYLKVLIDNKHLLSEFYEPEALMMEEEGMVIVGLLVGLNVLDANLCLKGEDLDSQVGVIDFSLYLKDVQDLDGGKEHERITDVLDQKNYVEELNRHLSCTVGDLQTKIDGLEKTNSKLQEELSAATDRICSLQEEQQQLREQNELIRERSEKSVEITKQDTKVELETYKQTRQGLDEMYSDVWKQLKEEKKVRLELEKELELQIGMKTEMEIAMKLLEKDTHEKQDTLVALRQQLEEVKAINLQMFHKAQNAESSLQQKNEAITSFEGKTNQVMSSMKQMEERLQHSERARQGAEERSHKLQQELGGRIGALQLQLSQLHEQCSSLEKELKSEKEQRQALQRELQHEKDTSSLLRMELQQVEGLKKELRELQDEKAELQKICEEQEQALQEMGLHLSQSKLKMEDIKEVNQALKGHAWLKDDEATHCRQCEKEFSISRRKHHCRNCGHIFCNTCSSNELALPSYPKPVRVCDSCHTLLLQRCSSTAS
UniProt Q5JTH9: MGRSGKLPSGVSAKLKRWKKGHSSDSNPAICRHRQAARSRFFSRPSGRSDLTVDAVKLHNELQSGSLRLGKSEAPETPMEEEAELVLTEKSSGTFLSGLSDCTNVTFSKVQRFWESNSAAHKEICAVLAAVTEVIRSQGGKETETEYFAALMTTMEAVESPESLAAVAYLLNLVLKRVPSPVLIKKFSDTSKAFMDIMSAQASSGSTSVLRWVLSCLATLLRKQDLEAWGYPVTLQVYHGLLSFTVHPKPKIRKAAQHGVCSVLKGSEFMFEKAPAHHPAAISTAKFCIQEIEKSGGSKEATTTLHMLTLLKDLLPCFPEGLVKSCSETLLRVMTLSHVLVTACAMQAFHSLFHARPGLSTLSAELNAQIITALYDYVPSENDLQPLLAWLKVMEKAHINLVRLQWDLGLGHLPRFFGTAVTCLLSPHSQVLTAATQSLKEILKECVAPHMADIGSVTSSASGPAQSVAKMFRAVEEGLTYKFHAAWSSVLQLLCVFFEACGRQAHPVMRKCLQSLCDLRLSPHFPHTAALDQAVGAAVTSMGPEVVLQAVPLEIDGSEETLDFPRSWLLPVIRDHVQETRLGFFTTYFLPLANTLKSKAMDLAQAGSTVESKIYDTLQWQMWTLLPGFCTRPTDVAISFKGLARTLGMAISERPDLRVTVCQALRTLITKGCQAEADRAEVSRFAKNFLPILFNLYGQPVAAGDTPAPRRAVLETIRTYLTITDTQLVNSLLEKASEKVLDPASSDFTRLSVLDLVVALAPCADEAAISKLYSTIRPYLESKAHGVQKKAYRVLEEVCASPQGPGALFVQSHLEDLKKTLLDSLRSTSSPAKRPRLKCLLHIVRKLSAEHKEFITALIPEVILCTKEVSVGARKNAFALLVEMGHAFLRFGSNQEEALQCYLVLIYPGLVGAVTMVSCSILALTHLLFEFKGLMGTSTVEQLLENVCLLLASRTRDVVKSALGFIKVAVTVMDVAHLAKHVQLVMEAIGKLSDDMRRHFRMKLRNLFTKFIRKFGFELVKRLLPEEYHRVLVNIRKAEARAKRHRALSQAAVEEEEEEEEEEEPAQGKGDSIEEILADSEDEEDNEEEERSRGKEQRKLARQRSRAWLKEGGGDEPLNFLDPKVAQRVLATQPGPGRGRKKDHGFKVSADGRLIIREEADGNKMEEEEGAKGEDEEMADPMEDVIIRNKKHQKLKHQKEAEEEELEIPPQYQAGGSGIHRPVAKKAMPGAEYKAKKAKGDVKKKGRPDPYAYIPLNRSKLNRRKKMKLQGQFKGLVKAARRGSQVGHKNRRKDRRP
UniProt Q5K651: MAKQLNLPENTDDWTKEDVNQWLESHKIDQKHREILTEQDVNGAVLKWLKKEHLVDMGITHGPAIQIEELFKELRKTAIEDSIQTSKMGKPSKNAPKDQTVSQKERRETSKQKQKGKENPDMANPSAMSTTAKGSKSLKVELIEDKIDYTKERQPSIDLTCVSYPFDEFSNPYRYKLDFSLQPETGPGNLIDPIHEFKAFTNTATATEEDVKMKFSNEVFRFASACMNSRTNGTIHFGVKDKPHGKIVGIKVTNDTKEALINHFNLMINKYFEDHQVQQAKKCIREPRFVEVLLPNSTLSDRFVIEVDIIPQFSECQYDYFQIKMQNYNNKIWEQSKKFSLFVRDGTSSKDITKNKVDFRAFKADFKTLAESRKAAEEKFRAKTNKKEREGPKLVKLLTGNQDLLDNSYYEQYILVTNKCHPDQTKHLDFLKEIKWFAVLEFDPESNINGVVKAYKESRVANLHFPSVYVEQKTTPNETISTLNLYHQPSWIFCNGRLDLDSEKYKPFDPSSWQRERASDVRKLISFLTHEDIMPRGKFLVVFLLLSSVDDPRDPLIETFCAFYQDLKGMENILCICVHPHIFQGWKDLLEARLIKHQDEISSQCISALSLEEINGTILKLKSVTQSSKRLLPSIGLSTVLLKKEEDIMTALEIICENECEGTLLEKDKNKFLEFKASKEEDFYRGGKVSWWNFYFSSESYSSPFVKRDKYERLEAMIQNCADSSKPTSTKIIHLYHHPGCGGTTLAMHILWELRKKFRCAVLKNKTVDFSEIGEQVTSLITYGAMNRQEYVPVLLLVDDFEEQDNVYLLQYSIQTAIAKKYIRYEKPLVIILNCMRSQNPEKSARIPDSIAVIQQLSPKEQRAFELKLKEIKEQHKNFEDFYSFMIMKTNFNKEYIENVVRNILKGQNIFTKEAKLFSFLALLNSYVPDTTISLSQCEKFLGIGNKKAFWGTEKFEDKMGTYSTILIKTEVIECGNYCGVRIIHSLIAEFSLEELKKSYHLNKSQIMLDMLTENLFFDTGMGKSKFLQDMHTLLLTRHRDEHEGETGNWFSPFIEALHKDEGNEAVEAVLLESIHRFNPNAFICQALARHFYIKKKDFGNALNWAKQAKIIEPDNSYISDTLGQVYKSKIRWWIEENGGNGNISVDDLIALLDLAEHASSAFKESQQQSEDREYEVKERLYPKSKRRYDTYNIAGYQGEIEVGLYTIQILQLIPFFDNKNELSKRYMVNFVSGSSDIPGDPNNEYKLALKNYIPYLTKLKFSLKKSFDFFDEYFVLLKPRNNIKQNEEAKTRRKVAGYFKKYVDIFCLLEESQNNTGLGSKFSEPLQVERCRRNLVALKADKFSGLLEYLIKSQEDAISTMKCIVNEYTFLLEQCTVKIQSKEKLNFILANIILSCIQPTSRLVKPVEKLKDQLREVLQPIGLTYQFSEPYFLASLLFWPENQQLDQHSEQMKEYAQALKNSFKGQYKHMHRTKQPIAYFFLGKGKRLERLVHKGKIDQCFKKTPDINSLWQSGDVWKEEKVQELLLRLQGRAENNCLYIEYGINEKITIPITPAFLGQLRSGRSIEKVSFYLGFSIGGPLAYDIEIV
UniProt Q9Y3Z3: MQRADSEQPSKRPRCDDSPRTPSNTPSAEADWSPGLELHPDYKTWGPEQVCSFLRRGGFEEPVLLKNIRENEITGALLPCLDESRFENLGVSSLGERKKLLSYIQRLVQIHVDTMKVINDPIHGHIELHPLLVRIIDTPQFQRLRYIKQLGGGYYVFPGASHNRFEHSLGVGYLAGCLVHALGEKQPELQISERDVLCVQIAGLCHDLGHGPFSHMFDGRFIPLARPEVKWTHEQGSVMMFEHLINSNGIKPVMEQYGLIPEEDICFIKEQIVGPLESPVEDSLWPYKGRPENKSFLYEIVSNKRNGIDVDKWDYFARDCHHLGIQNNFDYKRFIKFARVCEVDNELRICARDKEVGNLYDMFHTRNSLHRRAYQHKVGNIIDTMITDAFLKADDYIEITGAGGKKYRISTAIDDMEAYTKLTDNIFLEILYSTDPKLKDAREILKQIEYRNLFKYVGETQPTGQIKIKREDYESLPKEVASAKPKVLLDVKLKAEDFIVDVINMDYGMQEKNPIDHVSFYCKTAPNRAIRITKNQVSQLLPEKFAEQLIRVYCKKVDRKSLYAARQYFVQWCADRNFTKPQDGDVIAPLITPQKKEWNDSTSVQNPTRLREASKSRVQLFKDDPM
UniProt P05109: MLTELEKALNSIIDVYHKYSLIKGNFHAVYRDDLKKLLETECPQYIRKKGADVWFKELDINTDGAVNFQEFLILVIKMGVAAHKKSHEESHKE
UniProt Q9BY42: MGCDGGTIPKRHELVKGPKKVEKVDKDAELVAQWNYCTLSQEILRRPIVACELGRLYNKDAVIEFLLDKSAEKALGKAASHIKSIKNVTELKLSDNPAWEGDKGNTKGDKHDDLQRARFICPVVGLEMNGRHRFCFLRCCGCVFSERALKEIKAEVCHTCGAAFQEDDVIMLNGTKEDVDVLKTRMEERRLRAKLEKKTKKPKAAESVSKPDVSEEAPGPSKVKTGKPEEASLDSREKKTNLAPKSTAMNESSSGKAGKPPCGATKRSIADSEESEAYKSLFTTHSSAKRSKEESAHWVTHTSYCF
UniProt Q8N122, whole entry, looked up: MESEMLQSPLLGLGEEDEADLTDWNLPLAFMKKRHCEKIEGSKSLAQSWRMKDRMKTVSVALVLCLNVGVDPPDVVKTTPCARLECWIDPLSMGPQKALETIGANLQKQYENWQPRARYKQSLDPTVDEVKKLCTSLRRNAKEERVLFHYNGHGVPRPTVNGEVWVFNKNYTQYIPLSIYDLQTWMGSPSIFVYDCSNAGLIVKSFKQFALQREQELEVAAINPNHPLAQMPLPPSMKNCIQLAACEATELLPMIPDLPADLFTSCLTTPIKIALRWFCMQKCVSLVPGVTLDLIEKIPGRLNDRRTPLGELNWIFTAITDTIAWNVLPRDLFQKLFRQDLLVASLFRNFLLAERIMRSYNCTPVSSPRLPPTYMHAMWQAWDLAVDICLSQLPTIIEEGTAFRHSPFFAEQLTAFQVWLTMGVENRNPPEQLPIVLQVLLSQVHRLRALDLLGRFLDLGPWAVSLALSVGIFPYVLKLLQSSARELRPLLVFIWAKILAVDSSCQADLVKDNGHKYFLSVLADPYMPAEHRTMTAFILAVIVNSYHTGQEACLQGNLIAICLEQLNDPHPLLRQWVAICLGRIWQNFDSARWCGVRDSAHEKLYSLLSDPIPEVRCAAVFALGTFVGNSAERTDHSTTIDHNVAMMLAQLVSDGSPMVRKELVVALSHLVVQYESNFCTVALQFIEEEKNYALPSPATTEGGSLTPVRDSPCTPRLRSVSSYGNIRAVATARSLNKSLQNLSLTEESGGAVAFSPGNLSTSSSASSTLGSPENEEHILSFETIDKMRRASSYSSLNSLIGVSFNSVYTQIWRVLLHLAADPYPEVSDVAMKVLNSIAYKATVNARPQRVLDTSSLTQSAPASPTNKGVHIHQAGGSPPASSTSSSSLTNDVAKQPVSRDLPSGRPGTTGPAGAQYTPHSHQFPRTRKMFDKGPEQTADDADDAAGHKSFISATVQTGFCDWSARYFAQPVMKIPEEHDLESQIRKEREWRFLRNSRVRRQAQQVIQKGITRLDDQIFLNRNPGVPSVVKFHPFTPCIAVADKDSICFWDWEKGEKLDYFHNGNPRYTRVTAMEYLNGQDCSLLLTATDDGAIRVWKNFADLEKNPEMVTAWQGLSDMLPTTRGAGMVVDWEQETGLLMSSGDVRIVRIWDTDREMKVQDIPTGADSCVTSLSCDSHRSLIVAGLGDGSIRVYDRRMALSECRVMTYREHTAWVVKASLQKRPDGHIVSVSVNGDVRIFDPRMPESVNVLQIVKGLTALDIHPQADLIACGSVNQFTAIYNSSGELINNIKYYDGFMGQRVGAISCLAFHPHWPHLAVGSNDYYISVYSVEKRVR
UniProt Q9Y265, whole entry, looked up: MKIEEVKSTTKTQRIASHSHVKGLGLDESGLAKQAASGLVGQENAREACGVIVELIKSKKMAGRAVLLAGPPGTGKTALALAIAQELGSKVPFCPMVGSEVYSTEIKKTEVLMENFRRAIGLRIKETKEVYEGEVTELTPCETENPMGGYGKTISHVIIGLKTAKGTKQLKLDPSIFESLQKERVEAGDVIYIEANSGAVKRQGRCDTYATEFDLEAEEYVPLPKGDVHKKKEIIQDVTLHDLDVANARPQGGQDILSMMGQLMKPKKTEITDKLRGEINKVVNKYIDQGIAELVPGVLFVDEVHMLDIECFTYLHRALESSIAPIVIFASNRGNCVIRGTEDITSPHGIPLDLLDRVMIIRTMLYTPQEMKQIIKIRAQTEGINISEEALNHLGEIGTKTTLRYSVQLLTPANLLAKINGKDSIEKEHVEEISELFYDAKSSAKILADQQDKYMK

Question: Which results are given for “RPS29_P62273_39_KYGLNMCR (UniProt P62273)”?
Answer: probe-labelled cysteine peptide fold change (10 µM): -0.0348; probe-labelled cysteine peptide fold change (50 µM): -0.628

Question: What does the source list for “RPS12_P25398_50+56_RQAHLCVLASNCDEPMYVK (UniProt P25398)”?
Answer: probe-labelled cysteine peptide fold change (10 µM): 0.0285; probe-labelled cysteine peptide fold change (50 µM): -0.683

Question: With “RUFY1_Q96T51_81_RATGNLSASCGSALR (UniProt Q96T51)” as the target, how does the “probe-labelled cysteine peptide fold change” value (10 µM) read?
Answer: -0.241

Question: And the “probe-labelled cysteine peptide fold change” value (50 µM)?
Answer: -0.452

Question: Which “probe-labelled cysteine peptide fold change” value (10 µM) does the source give for “RRP12_Q5JTH9_799_VLEEVCASPQGPGALFVQSHLEDLK (UniProt Q5JTH9)” here?
Answer: 0.169

Question: And the “probe-labelled cysteine peptide fold change” value (50 µM)?
Answer: 0.326

Question: What does the source list for “RPS3_P23396_119_RACYGVLR (UniProt P23396)”?
Answer: probe-labelled cysteine peptide fold change (10 µM): -0.0679; probe-labelled cysteine peptide fold change (50 µM): 0.00385

Question: What does the source list for “SAMD9_Q5K651_605_HQDEISSQCISALSLEEINGTILK (UniProt Q5K651)”?
Answer: probe-labelled cysteine peptide fold change (10 µM): 0.0483; probe-labelled cysteine peptide fold change (50 µM): 0.138

Question: Which results are given for “SAMHD1_Q9Y3Z3_177_FEHSLGVGYLAGCLVHALGEK (UniProt Q9Y3Z3)”?
Answer: probe-labelled cysteine peptide fold change (10 µM): 0.0486; probe-labelled cysteine peptide fold change (50 µM): 0.122

Question: Which results are given for “SAAL1_Q96ER3_74_SSSDDEEQLTELDEEMENEICR (UniProt Q96ER3)”?
Answer: probe-labelled cysteine peptide fold change (10 µM): 0.00475; probe-labelled cysteine peptide fold change (50 µM): -0.0536

Question: For “RPS28_P62857_27_TGSQGQCTQVRVEFMDDTSR (UniProt P62857)”, which “probe-labelled cysteine peptide fold change” value (10 µM) is on record?
Answer: -0.0524

Question: What about the “probe-labelled cysteine peptide fold change” value (50 µM) of the same target?
Answer: -0.8

Question: For “SAMM50_Q9Y512_403_THFFLNAGNLCNLNYGEGPK (UniProt Q9Y512)”, which “probe-labelled cysteine peptide fold change” value (10 µM) is on record?
Answer: 0.022

Question: And the “probe-labelled cysteine peptide fold change” value (50 µM)?
Answer: 0.169

Question: With “S100A8_P05109_42_LLETECPQYIR (UniProt P05109)” as the target, how does the “probe-labelled cysteine peptide fold change” value (10 µM) read?
Answer: -0.163

Question: What about the “probe-labelled cysteine peptide fold change” value (50 µM) of the same target?
Answer: -0.186

Question: “RTFDC1_Q9BY42_121_FICPVVGLEMNGR (UniProt Q9BY42)” was tested. Which “probe-labelled cysteine peptide fold change” value (10 µM) did it give?
Answer: 0.0132

Question: What about the “probe-labelled cysteine peptide fold change” value (50 µM) of the same target?
Answer: -0.177

Question: “SAMHD1_Q9Y3Z3_266_PVMEQYGLIPEEDICFIK (UniProt Q9Y3Z3)” was tested. Which “probe-labelled cysteine peptide fold change” value (10 µM) did it give?
Answer: -0.123

Question: And the “probe-labelled cysteine peptide fold change” value (50 µM)?
Answer: 0.34

Question: With “RRBP1_Q9P2E9_1128_LREAEETQSTLQAECDQYR (UniProt Q9P2E9)” as the target, how does the “probe-labelled cysteine peptide fold change” value (10 µM) read?
Answer: 0.395

Question: And the “probe-labelled cysteine peptide fold change” value (50 µM)?
Answer: 0.325

Question: Which results are given for “RPTOR_Q8N122_1168+1174_VQDIPTGADSCVTSLSCDSHR (UniProt Q8N122)”?
Answer: probe-labelled cysteine peptide fold change (10 µM): -0.104; probe-labelled cysteine peptide fold change (50 µM): 0.0969

Question: For “SACS_Q9NZJ4_2182_SDHVAACLR (UniProt Q9NZJ4)”, which “probe-labelled cysteine peptide fold change” value (10 µM) is on record?
Answer: 0.189

Question: What about the “probe-labelled cysteine peptide fold change” value (50 µM) of the same target?
Answer: -0.223

Question: For “RRP1B_Q14684_155_EVLCPESQSPNGVR (UniProt Q14684)”, which “probe-labelled cysteine peptide fold change” value (10 µM) is on record?
Answer: -0.593

Question: What about the “probe-labelled cysteine peptide fold change” value (50 µM) of the same target?
Answer: -0.566

Question: “RSL1D1_O76021_96_SDSEDICLFTK (UniProt O76021)” was tested. Which “probe-labelled cysteine peptide fold change” value (10 µM) did it give?
Answer: 0.0269

Question: And the “probe-labelled cysteine peptide fold change” value (50 µM)?
Answer: 0.0589

Question: “RRM1_P23921_492_IIDINYYPVPEACLSNK (UniProt P23921)” was tested. Which “probe-labelled cysteine peptide fold change” value (10 µM) did it give?
Answer: 0.0914

Question: And the “probe-labelled cysteine peptide fold change” value (50 µM)?
Answer: -0.0623

Question: Which “probe-labelled cysteine peptide fold change” value (10 µM) does the source give for “RREB1_Q92766_291_DAMGRPFIQNNPSIPAGFHDLGFTDFSCR (UniProt Q92766)” here?
Answer: 0.2

Question: And the “probe-labelled cysteine peptide fold change” value (50 µM)?
Answer: 0.311

Question: “RPS15A_P62244_72_CGVISPR (UniProt P62244)” was tested. Which “probe-labelled cysteine peptide fold change” value (10 µM) did it give?
Answer: -0.088

Question: And the “probe-labelled cysteine peptide fold change” value (50 µM)?
Answer: -0.0168

Question: “RUBCNL_Q9H714_437_DLVVAAQNFFCAGCGTPVEPK (UniProt Q9H714)” was tested. Which “probe-labelled cysteine peptide fold change” value (10 µM) did it give?
Answer: 0.191

Question: What about the “probe-labelled cysteine peptide fold change” value (50 µM) of the same target?
Answer: 0.168

Question: With “RPS6_P62753_100_GCIVDANLSVLNLVIVK (UniProt P62753)” as the target, how does the “probe-labelled cysteine peptide fold change” value (10 µM) read?
Answer: 0.00264

Question: And the “probe-labelled cysteine peptide fold change” value (50 µM)?
Answer: -0.0534

Question: How did the “probe-labelled cysteine peptide fold change” value (10 µM) turn out when “RTN4IP1_Q8WWV3_236_AWDAHVTAVCSQDASELVR (UniProt Q8WWV3)” was run?
Answer: -0.0863

Question: And the “probe-labelled cysteine peptide fold change” value (50 µM)?
Answer: 0.0387

Question: Which results are given for “RSF1_Q96T23_1311_IETDEEESCDNAHGDANQPAR (UniProt Q96T23)”?
Answer: probe-labelled cysteine peptide fold change (10 µM): -0.0173; probe-labelled cysteine peptide fold change (50 µM): -0.233

Question: How did the “probe-labelled cysteine peptide fold change” value (10 µM) turn out when “RSBN1L_Q6PCB5_10_AEPPSPVHCVAAAAPTATVSEK (UniProt Q6PCB5)” was run?
Answer: 0.0789

Question: And the “probe-labelled cysteine peptide fold change” value (50 µM)?
Answer: 0.104

Question: How did the “probe-labelled cysteine peptide fold change” value (10 µM) turn out when “SAFB2_Q14151_672_ERLQLECQR (UniProt Q14151)” was run?
Answer: -0.167

Question: What about the “probe-labelled cysteine peptide fold change” value (50 µM) of the same target?
Answer: -0.742

Question: How did the “probe-labelled cysteine peptide fold change” value (10 µM) turn out when “SACS_Q9NZJ4_2255_GNSFKPETMFAATDLYTAEHQDIVCLLQPILNENSHSFR (UniProt Q9NZJ4)” was run?
Answer: 0.086

Question: What about the “probe-labelled cysteine peptide fold change” value (50 µM) of the same target?
Answer: -0.196

Question: With “RRN3_Q9NYV6_329_DVCYVDGK (UniProt Q9NYV6)” as the target, how does the “probe-labelled cysteine peptide fold change” value (10 µM) read?
Answer: -0.0684

Question: What about the “probe-labelled cysteine peptide fold change” value (50 µM) of the same target?
Answer: -0.103

Question: For RPS6_P62753_83_GHSCYR (UniProt P62753), which “probe-labelled cysteine peptide fold change” value (10 µM) is on record?
Answer: -0.121

Question: What about the “probe-labelled cysteine peptide fold change” value (50 µM) of the same target?
Answer: 0.519

Question: Which results are given for “RUFY1_Q96T51_544_IGALQLQLSQLHEQCSSLEK (UniProt Q96T51)”?
Answer: probe-labelled cysteine peptide fold change (10 µM): 0.216; probe-labelled cysteine peptide fold change (50 µM): 0.0639

Question: What does the source list for “RPS2_P15880_188_CGSVLVR (UniProt P15880)”?
Answer: probe-labelled cysteine peptide fold change (10 µM): -0.095; probe-labelled cysteine peptide fold change (50 µM): -0.125

Question: For “RPS3_P23396_119_ACYGVLR (UniProt P23396)”, which “probe-labelled cysteine peptide fold change” value (10 µM) is on record?
Answer: -0.115

Question: What about the “probe-labelled cysteine peptide fold change” value (50 µM) of the same target?
Answer: 0.0839

Question: Which “probe-labelled cysteine peptide fold change” value (10 µM) does the source give for “RPS4X_P62701_181_FDTGNLCMVTGGANLGR (UniProt P62701)” here?
Answer: -0.0033

Question: What about the “probe-labelled cysteine peptide fold change” value (50 µM) of the same target?
Answer: -0.0251

Question: “RPTOR_Q8N122_1047_DSICFWDWEK (UniProt Q8N122)” was tested. Which “probe-labelled cysteine peptide fold change” value (10 µM) did it give?
Answer: 0.288

Question: What about the “probe-labelled cysteine peptide fold change” value (50 µM) of the same target?
Answer: 0.282

Question: Which results are given for “RUVBL1_Q9Y265_94_VPFCPMVGSEVYSTEIK (UniProt Q9Y265)”?
Answer: probe-labelled cysteine peptide fold change (10 µM): -0.0483; probe-labelled cysteine peptide fold change (50 µM): -0.0862

Question: For “RXRA_P19793_369_TELGCLR (UniProt P19793)”, which “probe-labelled cysteine peptide fold change” value (10 µM) is on record?
Answer: 0.0861

Question: What about the “probe-labelled cysteine peptide fold change” value (50 µM) of the same target?
Answer: 0.139

Question: With “SAMD9_Q5K651_721_LEAMIQNCADSSKPTSTK (UniProt Q5K651)” as the target, how does the “probe-labelled cysteine peptide fold change” value (10 µM) read?
Answer: -0.222

Question: What about the “probe-labelled cysteine peptide fold change” value (50 µM) of the same target?
Answer: -0.0631
